Data reported in publication PMC10281804, “The structural basis of the talin–KANK1 interaction that coordinates the actin and microtubule cytoskeletons at focal adhesions” (Open Biology, 2023).
No constants are given. Whether binding was seen depends on the method and setting.

Protein sequences, listed by entry. Tags and fused reporters are not part of them. Residues count along the entry.
UniProt P26039, residues 1359-1659: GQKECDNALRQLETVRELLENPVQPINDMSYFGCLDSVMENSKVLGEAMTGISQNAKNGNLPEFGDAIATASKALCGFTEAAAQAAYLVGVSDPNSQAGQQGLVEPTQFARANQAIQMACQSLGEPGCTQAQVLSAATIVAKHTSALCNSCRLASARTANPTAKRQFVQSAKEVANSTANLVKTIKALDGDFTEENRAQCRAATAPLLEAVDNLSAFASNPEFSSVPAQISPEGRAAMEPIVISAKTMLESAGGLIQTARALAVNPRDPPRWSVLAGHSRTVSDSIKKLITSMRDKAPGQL

Biological target: Mouse talin-1 R7R8 (mouse) (UniProt P26039)
Assay: condition: 2:1 molar excess of peptide over 400 µM R7R8; NMR titration; 1H,15N HSQC of 400 µM 15N-labelled R7R8 with a 2:1 molar excess of peptide; 298 K, 20 mM sodium phosphate pH 6.5, 50 mM NaCl, 3 mM β-mercaptoethanol; both purified

binding | Binder
no binding | PYFVETPYGFQEDLDFVKYVDDIQKGNTIKK [KANK1 KN motif peptide L41E]
no binding | PYFVETPYGFQLDLDEVKYVDDIQKGNTIKK [KANK1 KN motif peptide F45E]
